In the supplement of paper PMC9254222:
Where a name gives a salt, the structure may show the parent alone. Whole data set: some 1,100 compounds, median “Wnt reporter firefly/Renilla luciferase ratio relative to plate median” near 1.1, cut for the highest 2% near 1.6. This is a selection; strong and weak results do not stand in their true shares.

System: HEK293T (UBE3A T485A transfected, BAR Wnt reporter)
Assay: Wnt reporter firefly/Renilla luciferase ratio relative to plate median (fold (linear ratio)); higher = more Wnt/beta-catenin reporter activation
Details: 24 h
How it was run: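 HEK293T cells were seeded at 4500 cells/well in white 384-well plates and grown in DMEM with 10% FBS at 37°C and 5% CO2. The cells were transfected using Fugene 6 with a BAR firefly luciferase Wnt reporter, TK-Renilla and an expression plasmid, and four hours later robots added the chemicals at 0.01–100 uM for 24 h before a Dual-Glo luciferase readout. Wnt activity was taken as the firefly/Renilla ratio and cell health as raw Renilla, each median-centred per plate. Values are averages of four biological replicates.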

Row | Compound | Wnt reporter firefly/Renilla luciferase ratio (concentration: 0.1 uM) | Wnt reporter firefly/Renilla luciferase ratio (concentration: 1 uM) | Wnt reporter firefly/Renilla luciferase ratio (concentration: 10 uM) | Wnt reporter firefly/Renilla luciferase ratio (concentration: 100 uM) | Wnt reporter firefly/Renilla luciferase ratio (concentration: 0.01 uM)
1 | COCCOCCOCCOC [Triethylene glycol dimethyl ether] | 1.07 | 1.1 | 1.03 | 1.36 | –
2 | Nc1cccc2c(N)cccc12 [1,5-Naphthalenediamine] | 1.09 | 0.956 | 1.11 | 0.569 | –
3 | Cn1c(=O)c2c(ncn2C)n(C)c1=O [Caffeine] | 0.985 | 1.06 | 0.97 | 1.48 | 0.921
4 | COC(=O)c1ccccc1O [Methyl salicylate] | 1.27 | 1.57 | 1.25 | 0.718 | –
5 | O=C(O)c1cn(C2CC2)c2cc(N3CCNCC3)c(F)cc2c1=O [Ciprofloxacin] | 0.853 | 1.01 | 0.882 | 1.74 | 0.979
6 | CCCCCCCCCCCCCCCCOS(=O)(=O)[O-].[Na+] [Sodium hexyldecyl sulfate] | – | – | – | 1.7 | –
7 | COc1ccc(-n2nc(C(F)F)cc2-c2ccc(S(C)=O)cc2)cc1 (configuration not stated) | 0.843 | 0.844 | 1.07 | 1.17 | –
8 | Cc1nc(-c2ccc3c(c2)CCN(CCC2CCC(NC(=O)/C=C/c4ccc(F)cc4)CC2)CC3)no1.Cl (configuration not stated) | 1.22 | 0.948 | 0.916 | 0.983 | –
9 | CC(C)(C)c1ccc(O)c(C(C)(C)C)c1 [2,4-Di-tert-butylphenol] | 0.984 | 1.32 | 1.13 | 1.1 | –
10 | C=CCCCCCCCCC(=O)O [10-Undecenoic acid] | 1.01 | 1.37 | 1.04 | 0.751 | –
11 | CC/C(=C(\c1ccccc1)c1ccc(OCCN(C)C)cc1)c1ccccc1.O=C(O)CC(O)(CC(=O)O)C(=O)O [Tamoxifen citrate] | 0.922 | 0.964 | 0.891 | 1.01 | –
12 | OC[C@H]1O[C@@H]2O[C@H]3[C@H](O)[C@@H](O)[C@@H](O[C@H]4[C@H](O)[C@@H](O)[C@@H](O[C@H]5[C@H](O)[C@@H](O)[C@@H](O[C@H]6[C@H](O)[C@@H](O)[C@@H](O[C@H]7[C@H](O)[C@@H](O)[C@@H](O[C@H]1[C@H](O)[C@H]2O)O[C@@H]7CO)O[C@@H]6CO)O[C@@H]5CO)O[C@@H]4CO)O[C@@H]3CO [alpha-Cyclodextrin] | 1.02 | 1.09 | 0.976 | 0.971 | –
13 | CC1=C(/C=C/C(C)=C/C=C/C(C)=C/CO)C(C)(C)CCC1 [Retinol] | 0.805 | 0.782 | 1 | 0.6 | –
14 | O=C(N[C@@H](Cc1ccccc1)[C@@H](O)C(=O)N1C[C@@H](O)[C@@H](O)C1)c1cc2cc(Cl)ccc2[nH]1 [Ingliforib] | 1.29 | 1.69 | 0.888 | 0.353 | –
15 | S=C([S-])NCCNC(=S)[S-].[Mn+2] [Maneb] | 1.01 | 0.993 | 1.27 | 0.987 | 1.04
16 | CCCCCCCCCCCCCCC [Pentadecane] | 1.42 | 1.06 | 1.41 | 1.36 | –
17 | Cc1cn([C@H]2C=C[C@@H](CO)O2)c(=O)[nH]c1=O [Stavudine] | 1.03 | 1.04 | 0.931 | 1.62 | –
18 | CCCCCCCCCCCCCCCCO [1-Hexadecanol] | 1.44 | 1.1 | 1.22 | 1.38 | –
19 | O=C1CN(N=Cc2ccc([N+](=O)[O-])o2)C(=O)N1 [Nitrofurantoin] | 1.09 | 0.833 | 0.499 | 0.0548 | –
20 | CCOCCOCCO [2-(2-Ethoxyethoxy)ethanol] | 0.833 | 1.24 | 0.948 | 1.26 | –
21 | CC[C@H]1CC[C@H](NCc2cc3c(cc2OC)[C@H]2C[C@H]2C(=O)N3C)[C@H](c2ccccc2)N1 | 1.1 | 1.22 | – | – | –

Arranged by heavy-atom count (descending): some entries from above
Row | Compound | Wnt reporter firefly/Renilla luciferase ratio (concentration: 0.1 uM) | Wnt reporter firefly/Renilla luciferase ratio (concentration: 1 uM) | Wnt reporter firefly/Renilla luciferase ratio (concentration: 10 uM) | Wnt reporter firefly/Renilla luciferase ratio (concentration: 100 uM) | Wnt reporter firefly/Renilla luciferase ratio (concentration: 0.01 uM)
19 | O=C1CN(N=Cc2ccc([N+](=O)[O-])o2)C(=O)N1 [Nitrofurantoin] | 1.09 | 0.833 | 0.499 | 0.0548 | –
9 | CC(C)(C)c1ccc(O)c(C(C)(C)C)c1 [2,4-Di-tert-butylphenol] | 0.984 | 1.32 | 1.13 | 1.1 | –
10 | C=CCCCCCCCCC(=O)O [10-Undecenoic acid] | 1.01 | 1.37 | 1.04 | 0.751 | –
1 | COCCOCCOCCOC [Triethylene glycol dimethyl ether] | 1.07 | 1.1 | 1.03 | 1.36 | –
20 | CCOCCOCCO [2-(2-Ethoxyethoxy)ethanol] | 0.833 | 1.24 | 0.948 | 1.26 | –

Remaining list, next part:

Row | Compound | Wnt reporter firefly/Renilla luciferase ratio (concentration: 0.1 uM) | Wnt reporter firefly/Renilla luciferase ratio (concentration: 1 uM) | Wnt reporter firefly/Renilla luciferase ratio (concentration: 10 uM) | Wnt reporter firefly/Renilla luciferase ratio (concentration: 100 uM) | Wnt reporter firefly/Renilla luciferase ratio (concentration: 0.01 uM)
22 | Cc1cccc2ccccc12 [1-Methylnaphthalene] | 1.12 | 0.916 | 1.2 | 1.41 | –
23 | C[Si]1(C)O[Si](C)(C)O[Si](C)(C)O[Si](C)(C)O1 [Octamethylcyclotetrasiloxane] | 1.23 | 1 | 0.917 | 1.14 | –
24 | CCCCCCCCO [1-Octanol] | 0.948 | 0.949 | 1.11 | 1.09 | –
25 | NC(=O)NO [Hydroxyurea] | 1.04 | 0.964 | 1.14 | 0.637 | –
26 | CCCN(C1CCN(C(=O)C2CCNCC2)CC1)[C@@H]1CCc2ccc(OC)cc2C1 | 1.01 | 0.953 | 1.1 | – | –
27 | CC(O)CC(C)(C)O (configuration not stated) [2-Methyl-2,4-pentanediol] | 1.13 | 0.976 | 1.04 | 1.56 | –
28 | CCOC(=O)c1ccc(O)cc1 [Ethylparaben] | 0.886 | 0.966 | 0.941 | 0.734 | –
29 | CCCCCCOC(=O)CC(CC(=O)OCCCCCC)(OC(=O)CCC)C(=O)OCCCCCC [Butyryl trihexyl citrate] | 1.17 | 1.18 | 1.15 | 1.14 | –
30 | COC(=O)CSc1cc(/N=c2\sc(=O)n3n2CCCC3)c(F)cc1Cl [Fluthiacet-methyl] | 1.09 | 0.963 | 1.11 | 1.21 | 0.983
31 | NCc1cccc(C2CCN(C(=O)c3ccc(C#Cc4ccccc4F)o3)CC2)c1 | 1.02 | 1.01 | 1.02 | 0.974 | –
32 | CCCCCOC(=O)COc1cc(N2C(=O)C3=C(CCCC3)C2=O)c(F)cc1Cl [Flumiclorac-pentyl] | 1.12 | 0.89 | 0.996 | 1.23 | 0.988
33 | CCCCOC(=O)CCCCC(=O)OCCCC [Dibutyl hexanedioate] | 0.981 | 0.969 | 1 | 1.08 | –
34 | CCc1cc(C2=C(C(=O)[O-])N(c3ccccc3C(F)(F)F)S(=O)(=O)c3ccccc32)cc2c1OCO2.[K+] [Fandosentan potassium salt] | 1.07 | 0.904 | 1.18 | 0.534 | –
35 | CCCOC(=O)c1ccc(C(=O)OCCC)nc1 [Dipropyl pyridine-2,5-dicarboxylate] | 1.2 | 1.08 | 1.34 | 1.2 | 0.767
36 | CCOc1ccc2c(c1)C(C)=CC(C)(C)N2 [Ethoxyquin] | 1.13 | 0.931 | 1.4 | – | –
37 | CO[C@@H]1COCC[C@@H]1[NH2+][C@@H]1CC[C@@](C(=O)N2CCc3ncc(C(F)(F)F)cc3C2)(C(C)C)C1.O=C([O-])CCC(=O)O | 1.25 | 0.958 | 1.31 | 0.91 | –
38 | CC(C)(C)c1cc(O)ccc1O [tert-Butylhydroquinone] | 1.14 | 1.24 | 0.885 | 0.804 | –
39 | CCCN(CCC)c1c([N+](=O)[O-])cc(C(F)(F)F)c(N)c1[N+](=O)[O-] [Prodiamine] | 1.47 | 1.2 | 1.2 | 1.29 | 1.16
40 | CCOC(=O)C(C)Oc1ccc(Oc2cnc3cc(Cl)ccc3n2)cc1 (configuration not stated) [Quizalofop-ethyl] | 1.1 | 1.03 | 1.09 | 0.981 | 0.779
41 | CCCC(=O)OCCC(C)C [Isopentyl butyrate] | 1.01 | 0.909 | 0.985 | 0.828 | –
42 | C[C@]12C=CC(=O)C=C1CC[C@H]1[C@@H]3C[C@@H](O)[C@](O)(C(=O)CO)[C@@]3(C)C[C@H](O)[C@@]12F [Triamcinolone] | 1.07 | 1.12 | 0.965 | 0.79 | –

Row | Compound | Wnt reporter firefly/Renilla luciferase ratio (concentration: 0.1 uM) | Wnt reporter firefly/Renilla luciferase ratio (concentration: 1 uM) | Wnt reporter firefly/Renilla luciferase ratio (concentration: 10 uM) | Wnt reporter firefly/Renilla luciferase ratio (concentration: 100 uM) | Wnt reporter firefly/Renilla luciferase ratio (concentration: 0.01 uM)
43 | FC(F)(F)C(F)(F)C(F)(F)C(F)(F)C(F)(F)C(F)(F)CCI [1H,1H,2H,2H-Perfluorooctyl iodide] | 1.09 | 1.07 | 0.938 | 1 | –
44 | COc1c(Cl)ccc(Cl)c1C(=O)O [Dicamba] | 0.917 | 1.08 | 1.16 | 1.15 | 0.872
45 | CC(CO)OC(C)CO.CC(O)COCC(C)O (configuration not stated) [Dipropylene glycol] | 0.913 | 1.2 | 0.923 | 1.33 | –
46 | CCCCCCCCOC(=O)c1cc(O)c(O)c(O)c1 [Octyl gallate] | 1.25 | 1.3 | 0.702 | 0.614 | –
47 | CC(C)(C)c1cc(/C=C2\SC(=N)NC2=O)cc(C(C)(C)C)c1O.CS(=O)(=O)O [Darbufelone mesylate] | 1.11 | 0.907 | 1.28 | – | –
48 | CCOC(=O)CC(CC(=O)OCC)(OC(C)=O)C(=O)OCC [Acetyltriethyl citrate] | 1.03 | 1.2 | 1.3 | 1.43 | –
49 | CCCCCc1ccc(N)cc1 [4-Pentylaniline] | 0.846 | 0.875 | 0.933 | 1.07 | –
50 | COc1cccc([C@H](O)C2CCN(CCc3ccc(F)cc3)CC2)c1OC [Volinanserin] | 1.14 | 0.889 | 1.34 | 0.324 | –
51 | OCC(CO)(CO)CO [Pentaerythritol] | 1.18 | 1.51 | 1.13 | 1.27 | –
52 | NC(=O)N(O)[C@@H]1COc2cc(OCc3ccccc3)ccc21 | 1.01 | 0.888 | 1.11 | 0.997 | –
53 | O=C(O)CC(O)(CC(=O)O)C(=O)O [Citric acid] | 1.1 | 1.18 | 1.16 | 1.48 | –
54 | CC1(C)C(=O)N(Br)C(=O)N1Br [1,3-Dibromo-5,5-dimethylhydantoin] | 0.79 | 1.01 | 1.06 | 1.25 | –
55 | CCc1nn(C2CCCCC2)c2cc([C@]3(C#N)CC[C@@H](C(=O)O)CC3)ccc12 | 1.31 | 0.964 | 1.09 | 0.908 | –
56 | CCCCCCCCCC(=O)O [Decanoic acid] | 1.43 | 1.04 | 1.39 | 0.794 | –
57 | C=CCCCCCCCCCCCC [1-Tetradecene] | 1.2 | 1.18 | 1.09 | 1.19 | –
58 | CCCCC(CC)CO (configuration not stated) [2-Ethyl-1-hexanol] | – | – | 1.62 | – | –
59 | CCCCCCOCCO [2-(Hexyloxy)ethanol] | 1.23 | 0.979 | 1.06 | 1.13 | –
60 | CCCCCCCC(=O)OC [Methyl octanoate] | 0.881 | 0.847 | 1.22 | 1.31 | –
61 | O=c1[nH]c2cc([N+](=O)[O-])c([N+](=O)[O-])cc2[nH]c1=O | 0.916 | 0.997 | 0.882 | 1.48 | 0.945
62 | CC1=C(C)S(=O)(=O)CCS1(=O)=O [Dimethipin] | 1.2 | 1.06 | 0.884 | 0.706 | –
